According to the supplement of paper PMC12823440, “Inhibitors supercharge kinase turnover through native proteolytic circuits” (Nature, 2025):
Structures can show the parent of a compound that is named as a salt. The list shows a part of the results. The calls rarely recur for the same compound in another form.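 Kinases were expressed as nanoluciferase fusions in K562 cells and luminescence was read every 4 h between 2 and 18 h as percent of control, DMSO set to 100% and a positive control to 0%. A time point counts as decreased when the signal drops significantly (2 sigma). The hit call is the authors' own, does not follow from the count of time points alone, and its rule is not shown.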

By UniProt entry, the sequences of proteins in these tests, tags left out. Where a name states a change or a piece, a line headed by the entry shows the natural chain unless it says otherwise.
UniProt Q6PHR2: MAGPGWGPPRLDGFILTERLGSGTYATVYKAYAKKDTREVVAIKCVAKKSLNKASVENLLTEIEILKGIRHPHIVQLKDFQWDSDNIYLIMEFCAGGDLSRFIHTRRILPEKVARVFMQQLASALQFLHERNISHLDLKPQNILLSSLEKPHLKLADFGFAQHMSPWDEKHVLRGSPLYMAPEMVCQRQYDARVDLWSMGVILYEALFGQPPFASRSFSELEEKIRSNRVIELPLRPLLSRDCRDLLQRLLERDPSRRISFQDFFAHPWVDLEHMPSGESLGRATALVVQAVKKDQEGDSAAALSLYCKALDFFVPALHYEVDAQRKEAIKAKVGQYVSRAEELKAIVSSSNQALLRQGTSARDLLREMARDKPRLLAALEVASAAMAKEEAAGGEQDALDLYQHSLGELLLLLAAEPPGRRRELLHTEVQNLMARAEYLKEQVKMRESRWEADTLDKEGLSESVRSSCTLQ
UniProt P07947, whole entry, looked up: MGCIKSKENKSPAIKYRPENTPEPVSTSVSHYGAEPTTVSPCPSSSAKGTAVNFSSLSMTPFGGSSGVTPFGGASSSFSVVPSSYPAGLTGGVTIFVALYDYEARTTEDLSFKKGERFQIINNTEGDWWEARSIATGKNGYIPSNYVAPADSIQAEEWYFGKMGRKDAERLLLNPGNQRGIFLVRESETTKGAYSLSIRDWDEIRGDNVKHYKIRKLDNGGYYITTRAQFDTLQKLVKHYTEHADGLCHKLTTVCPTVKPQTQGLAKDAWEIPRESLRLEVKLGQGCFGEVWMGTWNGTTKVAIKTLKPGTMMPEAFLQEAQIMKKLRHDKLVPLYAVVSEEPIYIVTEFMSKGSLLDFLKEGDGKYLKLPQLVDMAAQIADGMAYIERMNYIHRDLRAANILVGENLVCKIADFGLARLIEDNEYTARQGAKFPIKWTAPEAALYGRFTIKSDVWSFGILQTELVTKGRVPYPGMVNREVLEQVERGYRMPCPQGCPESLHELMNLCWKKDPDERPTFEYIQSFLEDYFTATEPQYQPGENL

These compounds were tested against ULK3 (UniProt Q6PHR2) (assay: kinase-Nluc reporter destabilization hit call (1 = scored as downregulated) (binary); higher = compound decreases kinase abundance). Conditions: 10 µM; K562; 2-18 h.

kinase-Nluc reporter destabilization hit call, inactive:
COc1ncc(F)cc1CNc1ccc(Cc2c[nH]c3ncc(C)cc23)c(F)n1 [PLX5622 (hemifumarate)] 0
C#Cc1cccc(Nc2ncnc3cc(OCCOC)c(OCCOC)cc23)c1 [Erlotinib] 0
Oc1cccc(-c2nc(N3CCOCC3)c3oc4ncccc4c3n2)c1 0
C#Cc1cccc(Nc2ncnc3cc(OCCOC)c(OCCO)cc23)c1 [Desmethyl Erlotinib (hydrochloride)] 0
C[C@@H](N)[C@H]1CC[C@H](C(=O)Nc2ccncc2)CC1 0
C#Cc1cccc(Nc2ncnc3cc4c(cc23)OCCOCCOCCO4)c1 [Icotinib] 0
C#Cc1cccc(Nc2ncnc3cc4c(cc23)OCCOCCOCCO4)c1 [Icotinib (Hydrochloride)] 0
O=C(c1ccc(F)c(F)c1Nc1ccc(I)cc1F)N1CC(O)([C@@H]2CCCCN2)C1 [Cobimetinib] 0
COc1cc2nccc(Nc3cc(OC)c(OC)c(OC)c3)c2cc1OC [GAK inhibitor 49 (hydrochloride)] 0
O=C(c1ccc(F)c(F)c1Nc1ccc(I)cc1F)N1CC(O)([C@@H]2CCCCN2)C1 [Cobimetinib (hemifumarate)] 0
C=CC(=O)Nc1cc(Nc2ncc(C(=O)OC(C)C)c(-c3cn(C)c4ccccc34)n2)c(OC)cc1N(C)CCN(C)C [Mobocertinib (succinate)] 0
CNC(=O)c1ccccc1Nc1cc(Nc2ccc(N3CCOCC3)cc2OC)ncc1C(F)(F)F [PND-1186 (hydrochloride)] 0
Cc1cccc(/C=N/Nc2cc(N3CCOCC3)nc(OCCc3ccccn3)n2)c1 [Apilimod (mesylate)] 0
O=C(O)c1ccc2c(c1)nc(Nc1cccc(Cl)c1)c1ccncc12 [Silmitasertib (sodium salt)] 0
C[C@H](CCC(=O)NCCS(=O)(=O)O)[C@H]1CC[C@H]2[C@@H]3[C@@H](O)C[C@@H]4C[C@H](O)CC[C@]4(C)[C@H]3CC[C@]12C [Tauroursodeoxycholate (dihydrate)] 0
COc1cc2c(cc1OC)-c1c(C)c3ccc(OC)c(OC)c3c[n+]1CC2 [Dehydrocorydaline (chloride)] 0
Clc1ccc(C2(c3ccc(-c4cn[nH]c4)cc3)CCNCC2)cc1 0
CCCC(=O)Nc1ncnc2c1ncn2[C@@H]1O[C@@H]2COP(=O)(O)O[C@H]2[C@H]1OC(=O)CCC [Bucladesine (calcium)] 0
CCS(=O)(=O)N1CCN(c2ccc(Nc3ncc(C(N)=O)c(NC4CC4)n3)cc2)CC1 [Cerdulatinib] 0
CCS(=O)(=O)N1CC(CC#N)(n2cc(-c3ncnc4[nH]ccc34)cn2)C1 [Baricitinib (phosphate)] 0
FC(F)(F)c1ccc(CNc2ccc(Cc3c[nH]c4ncc(Cl)cc34)cn2)cn1 [Pexidartinib (hydrochloride)] 0
O=C(Nc1cnn2ccc(N3CCC[C@@H]3c3cc(F)ccc3F)nc12)N1CC[C@H](O)C1 [Larotrectinib sulfate] 0
C[C@@H](N)c1ccc(C(=O)Nc2ccnc3[nH]ccc23)cc1 0
C[S+]([O-])c1ccc(-c2nc(-c3ccc(F)cc3)c(-c3ccncc3)[nH]2)cc1 (stereo unspecified) 0
CS(=O)(=O)N1CCN(Cc2cc3nc(-c4cccc5[nH]ncc45)nc(N4CCOCC4)c3s2)CC1 [Pictilisib (dimethanesulfonate)] 0

The compounds below were run against YES1 (UniProt P07947) in the same assay as above. Conditions: 2.5 µM; K562; 2-18 h.

kinase-Nluc reporter destabilization hit call, inactive:
C=CC(=O)Nc1cc(Nc2nccc(-c3cn(C)c4ccccc34)n2)c(OC)cc1N(C)CCN(C)C [Osimertinib mesylate] 0
Cc1cccc(-c2[nH]c(CNc3ccccc3F)nc2-c2ccc3ncnn3c2)n1 [Vactosertib (Hydrochloride)] 0
CC(C)Oc1ccc(-c2nn([C@@H](C)c3oc4ccc(F)cc4c(=O)c3-c3cccc(F)c3)c3ncnc(N)c23)cc1F [Umbralisib (hydrochloride)] 0
COc1ccc(S(=O)(=O)Nc2ccccc2CN(C)C/C=C/c2ccc(Cl)cc2)cc1 [KN-92 (phosphate)] 0
CN(C)C(=O)c1cc2cnc(Nc3ccc(N4CCNCC4)cn3)nc2n1C1CCCC1 [Ribociclib succinate hydrate] 0
C=CC(=O)Nc1cc2c(Nc3ccc(F)c(Cl)c3)ncnc2cc1C#CC(C)(C)N1CCN(C)CC1 0
Cc1cccc(/C=N/Nc2cc(N3CCOCC3)nc(OCCc3ccccn3)n2)c1 [Apilimod] 0
COc1cc2c(Oc3ccc4[nH]c(C)cc4c3F)ncnc2cc1OCCCN1CCCC1 [Cediranib] 0
Cc1cc(Nc2ncc(Cl)c(Nc3ccccc3S(=O)(=O)C(C)C)n2)c(OC(C)C)cc1C1CCNCC1 [Ceritinib dihydrochloride] 0
Nc1ncnc2c1c(-c1ccc(Oc3ccccc3)cc1)nn2[C@@H]1CCCNC1 0
CNC(=O)c1cc(Oc2ccc(NC(=O)Nc3ccc(Cl)c(C(F)(F)F)c3)c(F)c2)ccn1 [Regorafenib] 0

Quoted at random: three compounds from above, in no set order.
kinase-Nluc reporter destabilization hit call, inactive:
Cc1cccc(/C=N/Nc2cc(N3CCOCC3)nc(OCCc3ccccn3)n2)c1 [Apilimod] 0
Nc1ncnc2c1c(-c1ccc(Oc3ccccc3)cc1)nn2[C@@H]1CCCNC1 0
CNC(=O)c1cc(Oc2ccc(NC(=O)Nc3ccc(Cl)c(C(F)(F)F)c3)c(F)c2)ccn1 [Regorafenib] 0
